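Phenotypic screen: M. tuberculosis growth, glucose 7H9 medium, 3 days; the read-out is not stated. Compounds at 50 µM. Direction is inferred from retests: higher values go with more growth inhibition. About 69,000 compounds were tested under these conditions; 1.1% (about 760) showed 50% or more at least once.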

Values are the deposited “Percent Effect”, in %.
The controls that fix the scale are not given in the record; negative values are as filed.
The compounds are a random part of those screened.
Two or more numbers in one place are separate tests of the same structure; such repeats can differ widely.

Compound,Percent Effect
CC(C)n1cnnc1CN(C)C1CCCNC1 (centres unmarked),25.17%
Cc1nc(C)n(CC2CN(c3nnc(C)c(C)c3C#N)CCO2)n1 (centres unmarked),-6.574%
Cc1csc(CNc2ccc(-c3nc(C4CC4)no3)cn2)n1,24.83%
CC(C)c1nc(CN2CCC(c3ccnn3CCO)CC2)no1,-12.89%
Cc1ccc(-c2nc(CC(=O)N3CCN(c4cnccn4)CC3)cs2)o1,-5.905%
Cc1cc(CNS(C)(=O)=O)ccc1N(C)C,-22.74%
CCn1cc2c(n1)C(COCC1CC1)CN(C(=O)c1cc(C)on1)C2 (centres unmarked),-0.7751% & 9.707%
[H][C@@]12CC[C@@](O)(c3ccc(C)cn3)[C@]1([H])CN(Cc1cccnc1)C2,-20.31%
CN1CCCC(NC(=O)c2ccc(C(=O)c3cc[nH]c3)cc2)C1 (centres unmarked),-18.03%
CC(=O)Nc1nc(C2CCN(C(=O)Cc3ccccc3)CC2)cs1,3.091%
CCOC(=O)N1CCCn2nc(C(=O)NCCN(C)C)cc2C1,-4.409%
Cc1ncc(C(=O)N2CCC(C(=O)NC3CCCC3)C2)c(C)n1 (centres unmarked),-13.54%
CS(=O)(=O)NC1CCN(C(=O)NCCc2ccccc2F)CC1,15.69%
[H][C@]12CCN(C(N)=O)[C@@]1([H])CC[C@@H](COCC(=O)N1CCCC1)O2,-25.75%
Cc1nc(C2CCN(C[C@H](C)CO)CC2)cc(N2CCOCC2)n1,-12.41%
Cc1nc2c(c(=O)[nH]1)CN(Cc1ccc3c(c1)CCCN3C)CC2,19.86%
N#Cc1cccc(CN2CC3(CCCCN3c3cccnc3)CC2=O)c1.O=C(O)C(F)(F)F (centres unmarked),13.73% & -1.592%
COc1ccc(-c2ccc(C(=O)N3CCOCC3CC(N)=O)o2)cc1 (centres unmarked),5.049%
COC(=O)c1cccn1C1CCN(S(=O)(=O)c2ccccc2)CC1,20.85%
Cc1noc(CN2CCOC(CN(C)C)C2)n1 (centres unmarked),-42.42%
CN(CC1CCCCO1)c1nc(-c2cccnc2)nc2c1CCNC2 (centres unmarked),1.885%
Cn1cnnc1S(=O)(=O)C1CCN(S(=O)(=O)C2CC2)CC1,-18.87% & -12.03%
CCCN1CCCn2nc(CNC(=O)CC(C)n3ccnc3C)cc2C1 (centres unmarked),-36.27% & -4.673%
CC(C)NC(=O)N1Cc2nccn2CC(COc2cccnc2)C1.O=C(O)C(F)(F)F (centres unmarked),-28.74%
CC(=O)Nc1ccc(CNC2COc3c2ccc(C)c3C)cc1 (centres unmarked),-6.409%
N#CCCCS(=O)(=O)NC1(c2ccc(F)cc2)CC1,-12.37%
Cn1cc(CC2CCN(C(=O)NCc3cccc(C#N)c3)C2)cn1 (centres unmarked),10.92%
Cc1nc2c(c(NC(C)C)n1)CCN(C1CCOCC1)CC2.O=C(O)C(F)(F)F,-20.49% & -4.088%
Fc1cccc(CNc2cncc(-n3cccn3)n2)c1,45.27%
O=C(CSc1ccc2c(c1)OCCO2)NS(=O)(=O)c1ccccc1Cl,3.233%
O=C(O)C(F)(F)F.[H][C@]12CCN(Cc3c(C)noc3C)[C@@]1([H])CC[C@H](COCC1CC1)O2,2.556% & -2.882%
CCCC(=O)N1CCN(CC(O)COCC)CC1 (centres unmarked),-15.52%
O=C(CCN1CCOC(Cn2cccn2)C1)NC1CCCC1 (centres unmarked),-5.257%
[H][C@@]12CS(=O)(=O)C[C@]1([H])N(C(=O)NCC)CCN2Cc1ccc(CCC)o1,-2.432%
OC1COCCN(Cc2cccc(N3CCOCC3)c2)C1 (centres unmarked),-3.441%
O=C(c1ccn(-c2ccccc2)n1)N1CCCC(n2cccn2)C1 (centres unmarked),27.6%
Cc1cc(C)n(C2CN(CC(=O)NC3CCOCC3)C2)n1,-41.71%
CCc1nccn1C1CCCN(C(=O)c2cc3nc(C)ccc3o2)C1 (centres unmarked),13.08%
CN1CCN(Cc2cccnc2)C(=O)C12CCN(Cc1ccco1)CC2.O=C(O)C(F)(F)F.O=C(O)C(F)(F)F.O=C(O)C(F)(F)F,16.99%
CCOCC1c2c(ncn2C)CCN1C(=O)c1ccoc1 (centres unmarked),5.761%
O=c1c(NCCc2ccc(O)cc2)c(NCc2ccccn2)c1=O,16.13%
O=C(O)C(F)(F)F.O=C([C@H]1CCCO1)N1CCCC2(CCN(Cc3ccncc3)C2=O)C1 (some centres unmarked),-21.65%
CN(C)CC(=O)N1CCC2(CCN(Cc3cccc(F)c3)CC2)C1,8.91%
CC(C)c1nnsc1CN1CCc2[nH]nc(-c3ccc(Cl)cc3)c2C1,1.637%
Cc1cc(S(=O)(=O)NC(=O)CCc2cncc(F)c2)c(C)s1,12.74%
COCCN1CCC(c2nc3ccc(-c4ccccc4)cn3n2)CC1.O=C(O)C(F)(F)F,-0.9046%
CCS(=O)(=O)N1CCN(Cc2cccnc2)c2nc(C)ccc2C1.O=C(O)C(F)(F)F.O=C(O)C(F)(F)F,38.6%
CCOC(=O)C1(Cc2ccccc2)CCCN(Cc2nccn2CC)C1 (centres unmarked),31.03%
O=C(O)C(F)(F)F.O=C(O)C(F)(F)F.[H][C@@]12C[C@H](C(=O)NCC(C)C)[C@@]([H])(CN(Cc3cccnc3)C1)O2,-32.41% & -0.4708%
CN1CCOC(C)(C(=O)N2CCSCC2)C1 (centres unmarked),12.13%
CC(=O)NC1CCCN(C(=O)CNc2cccc(C)c2Cl)C1 (centres unmarked),-20.92%

Once more, the final 3:

O=C(O)C(F)(F)F.O=C(O)C(F)(F)F.[H][C@@]12C[C@H](C(=O)NCC(C)C)[C@@]([H])(CN(Cc3cccnc3)C1)O2 gave -32.41% & -0.4708%.
CN1CCOC(C)(C(=O)N2CCSCC2)C1 (centres unmarked) gave 12.13%.
CC(=O)NC1CCCN(C(=O)CNc2cccc(C)c2Cl)C1 (centres unmarked) gave -20.92%.

Source: ChEMBL document CHEMBL3988442, “University of Dundee, Small-Polar-MMV Screening Library” (2021).